Data published in publication PMC5663958, “DNA Ligase C and Prim-PolC participate in base excision repair in mycobacteria” (Nature Communications, 2017).
Results are given in words; binding and its absence hold for the method and conditions named. Some entries that bind do so weakly or less than the wild type. Sequences can lack the tags named with a protein.

Target: T1, PolD2, recombinant (M. smegmatis) (UniProt A0QQ21)
T1 sequence: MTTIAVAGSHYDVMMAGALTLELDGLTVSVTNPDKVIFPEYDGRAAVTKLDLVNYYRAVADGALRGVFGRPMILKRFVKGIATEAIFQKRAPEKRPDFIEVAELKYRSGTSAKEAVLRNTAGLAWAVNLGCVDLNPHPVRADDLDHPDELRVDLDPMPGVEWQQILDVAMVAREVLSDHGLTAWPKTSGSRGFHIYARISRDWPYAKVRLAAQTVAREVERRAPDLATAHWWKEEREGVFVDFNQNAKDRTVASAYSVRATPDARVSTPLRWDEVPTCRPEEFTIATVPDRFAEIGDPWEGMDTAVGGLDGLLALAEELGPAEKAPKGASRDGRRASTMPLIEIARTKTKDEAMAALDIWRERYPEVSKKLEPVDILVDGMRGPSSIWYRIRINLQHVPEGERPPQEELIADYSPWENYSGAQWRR
Experiment: far-Western, overlay or dot blot; recombinant proteins slot-blotted on a membrane (3 μg of the possible interactors, 50 ng of the probed protein), blocked in TBS, 0.05% Tween 20, 5% milk; incubated with 5 μg ml^−1 Prim-PolC or LigC1; detected with Prim-PolC- or LigC1-specific antibodies; both purified

binding: binds
B1: DNA ligase C1 (LigC1, msmeg_6302), recombinant, His-tagged construct (enzyme, UniProt A0R5T2 1-348)
chain: MDLPVQPPIEPMLAKAQVKVPDEAGVWSYEPKWDGFRALVFRDGDDVVLQSRNGKDLGRYFPELLDALRDELVEKCVLDGEVVVPRDIAGRVRLDWESLSQRIHPAASRIKMLAEQTPAHFIGFDALALGDRSLLKEPFRVRREALAEAVDNKRWCHVTRTSEDPALGTEWLKTFEGAGLDGVIAKRLDGPYLPGKREMVKVKHHRDADCVAMGYRIHKSGDGIGSILLGLYRDDGELQMVGGAASFTAKDRIKLLAELEPLREGDEMREGDPSRWNSAADKRWTPLRPEKVCEVAYDQMEGNSVEGRRFRHAVKFLRWRPDREPSSCTFDQLDTPLNYDLYDVLEEQ
